Assay results from patent publication US20160090556A1, “PRODUCTS COMPRISING MALODOR REDUCTION MATERIALS” (The Procter & Gamble Company, priority 2014, published 2016).

How the values were obtained:
[1] = Melamine formaldehyde PMC leakage
[2] = Melamine formaldehyde PMC Headspace Response Ratio
[3] = class code letter within Comment Code

Row | SMILES | Melamine formaldehyde PMC leakage (Comment Code J) [1, 3] | Melamine formaldehyde PMC Headspace Response Ratio (Comment Code I) [2, 3] | Melamine formaldehyde PMC leakage (Comment Code J) [1] | Melamine formaldehyde PMC Headspace Response Ratio (Comment Code I) [2] | other results
1 | CC1=CCC2C(C1)C2(C)C (centres unmarked) [Material 468] | J (Melamine formaldehyde PMC leakage less than or equal to 5%) | I (Melamine formaldehyde PMC Headspace Response Ratio greater than or equal to 10) |  |  | 
2 | CCOC(=O)C1C2C=CC(C2)C1C(C)C (centres unmarked) [Material 280] | J (Melamine formaldehyde PMC leakage less than or equal to 5%) | I (Melamine formaldehyde PMC Headspace Response Ratio greater than or equal to 10) |  |  | 
3 | C=C1CCCC(C)(C)C1C=C(C)C(C)=O (centres unmarked) [Material 913] |  |  | J (Melamine formaldehyde PMC leakage less than or equal to 5%) | I (Melamine formaldehyde PMC Headspace Response Ratio greater than or equal to 10) | 
4 | COc1cc(C)ccc1C(C)C [Material 1062] |  |  | J (Melamine formaldehyde PMC leakage less than or equal to 5%) | I (Melamine formaldehyde PMC Headspace Response Ratio greater than or equal to 10) | 
5 | Cc1ccc(C(C)(C)O)cc1 [Material 4] | J (Melamine formaldehyde PMC leakage less than or equal to 5%) | I (Melamine formaldehyde PMC Headspace Response Ratio greater than or equal to 10) |  |  | 
6 | CC1(C)C2CC=C(C=O)C1C2 (centres unmarked) [Material 70] | J (Melamine formaldehyde PMC leakage less than or equal to 5%) | I (Melamine formaldehyde PMC Headspace Response Ratio greater than or equal to 10) |  |  | 
7 | CC1=CCC(C)C(C)C12C=CC(C)O2 (centres unmarked) [Material 192] | J (Melamine formaldehyde PMC leakage less than or equal to 5%) | I (Melamine formaldehyde PMC Headspace Response Ratio greater than or equal to 10) |  |  | 
8 | CC12CCC(CC1=O)C2(C)C (centres unmarked) [Material 588] |  |  |  |  | Comment Code: Melamine formaldehyde PMC leakage ([1]; code letter J): J (Melamine formaldehyde PMC leakage less than or equal to 5%); Comment Code: Melamine formaldehyde PMC Headspace Response Ratio ([2]; code letter I): I (Melamine formaldehyde PMC Headspace Response Ratio greater than or equal to 10)
9 | COC1=C(C)OC(C)C1=O (centres unmarked) [Material 740] |  |  |  |  | Comment Code: Melamine formaldehyde PMC leakage ([1]; code letter J): J (Melamine formaldehyde PMC leakage less than or equal to 5%); Comment Code: Melamine formaldehyde PMC Headspace Response Ratio ([2]; code letter I): I (Melamine formaldehyde PMC Headspace Response Ratio greater than or equal to 10)
10 | CC(C)C1CCC(C(C)O)CC1 (centres unmarked) [Material 83] | J (Melamine formaldehyde PMC leakage less than or equal to 5%) | I (Melamine formaldehyde PMC Headspace Response Ratio greater than or equal to 10) |  |  | 
11 | CCCCCC1CCCC(=O)O1 (centres unmarked) [Material 464] | J (Melamine formaldehyde PMC leakage less than or equal to 5%) | I (Melamine formaldehyde PMC Headspace Response Ratio greater than or equal to 10) |  |  | 
12 | CC1C(C)(C)c2ccccc2C1(C)C [Material 879] |  |  | J (Melamine formaldehyde PMC leakage less than or equal to 5%) | I (Melamine formaldehyde PMC Headspace Response Ratio greater than or equal to 10) | 
13 | COC(C)(C)CCCC(C)C=O (centres unmarked) [Material 125] |  |  |  |  | Comment Code: Melamine formaldehyde PMC leakage ([1]; code letter J): J (Melamine formaldehyde PMC leakage less than or equal to 5%); Comment Code: Melamine formaldehyde PMC Headspace Response Ratio ([2]; code letter I): I (Melamine formaldehyde PMC Headspace Response Ratio greater than or equal to 10)
14 | CC1=CCC(O)(C(C)C)CC1 (centres unmarked) [Material 791] |  |  | J (Melamine formaldehyde PMC leakage less than or equal to 5%) | I (Melamine formaldehyde PMC Headspace Response Ratio greater than or equal to 10) | 
15 | CCCCCC1=C(C)CCC1=O [Material 438] |  |  |  |  | Comment Code: Melamine formaldehyde PMC leakage ([1]; code letter J): J (Melamine formaldehyde PMC leakage less than or equal to 5%); Comment Code: Melamine formaldehyde PMC Headspace Response Ratio ([2]; code letter I): I (Melamine formaldehyde PMC Headspace Response Ratio greater than or equal to 10)
16 | CC(=O)OC1C2(C)CCC(C2)C1(C)C (centres unmarked) [Material 878] |  |  | J (Melamine formaldehyde PMC leakage less than or equal to 5%) | I (Melamine formaldehyde PMC Headspace Response Ratio greater than or equal to 10) | 
17 | Cc1c(C)c([N+](=O)[O-])c(C(C)(C)C)c([N+](=O)[O-])c1C [Material 75] | J (Melamine formaldehyde PMC leakage less than or equal to 5%) | I (Melamine formaldehyde PMC Headspace Response Ratio greater than or equal to 10) |  |  | 

Row | SMILES | Melamine formaldehyde PMC leakage (Comment Code J) [1, 3] | Melamine formaldehyde PMC Headspace Response Ratio (Comment Code I) [2, 3] | Melamine formaldehyde PMC leakage (Comment Code J) [1] | Melamine formaldehyde PMC Headspace Response Ratio (Comment Code I) [2] | other results
18 | C=C(C)C1CC=C(C)CC1 (centres unmarked) [Material 145] | J (Melamine formaldehyde PMC leakage less than or equal to 5%) | I (Melamine formaldehyde PMC Headspace Response Ratio greater than or equal to 10) |  |  | 
19 | C=C1CCCC(C)(C)C1C(=O)OC (centres unmarked) [Material 1010] |  |  | J (Melamine formaldehyde PMC leakage less than or equal to 5%) | I (Melamine formaldehyde PMC Headspace Response Ratio greater than or equal to 10) | 
20 | CC(C)C12CCC(C)(CC1)O2 [Material 875] |  |  |  |  | Comment Code: Melamine formaldehyde PMC leakage ([1]; code letter J): J (Melamine formaldehyde PMC leakage less than or equal to 5%); Comment Code: Melamine formaldehyde PMC Headspace Response Ratio ([2]; code letter I): I (Melamine formaldehyde PMC Headspace Response Ratio greater than or equal to 10)
21 | CC1CCC2(O1)C(C)(C)CCCC2(C)O (centres unmarked) [Material 893] |  |  | J (Melamine formaldehyde PMC leakage less than or equal to 5%) | I (Melamine formaldehyde PMC Headspace Response Ratio greater than or equal to 10) | 
22 | CCCCCCC1CCC(=O)O1 (centres unmarked) [Material 332] | J (Melamine formaldehyde PMC leakage less than or equal to 5%) | I (Melamine formaldehyde PMC Headspace Response Ratio greater than or equal to 10) |  |  | 
23 | C=CC(C)CCCC(C)(C)O (centres unmarked) [Material 437] |  |  |  |  | Comment Code: Melamine formaldehyde PMC leakage ([1]; code letter J): J (Melamine formaldehyde PMC leakage less than or equal to 5%); Comment Code: Melamine formaldehyde PMC Headspace Response Ratio ([2]; code letter I): I (Melamine formaldehyde PMC Headspace Response Ratio greater than or equal to 10)
24 | CCC=C(C)C(O)CCCCC (centres unmarked) [Material 1104] |  |  | J (Melamine formaldehyde PMC leakage less than or equal to 5%) | I (Melamine formaldehyde PMC Headspace Response Ratio greater than or equal to 10) | 
25 | CC1(C)C2CCC3(C2)C1C(=O)CCC3(C)C (centres unmarked) [Material 1149] |  |  |  |  | Comment Code: Melamine formaldehyde PMC leakage ([1]; code J of the Comment Code column, Table 1): J (Melamine formaldehyde PMC leakage less than or equal to 5%); Comment Code: Melamine formaldehyde PMC leakage ([1]; code letter J): J (Melamine formaldehyde PMC leakage less than or equal to 5%); Comment Code: Melamine formaldehyde PMC Headspace Response Ratio ([2]; code I of the Comment Code column, Table 1): I (Melamine formaldehyde PMC Headspace Response Ratio greater than or equal to 10); Comment Code: Melamine formaldehyde PMC Headspace Response Ratio ([2]; code letter I): I (Melamine formaldehyde PMC Headspace Response Ratio greater than or equal to 10)
26 | CC(=O)/C=C/C1C(C)CCC(C)C1(C)C (centres unmarked) [Material 71] | J (Melamine formaldehyde PMC leakage less than or equal to 5%) | I (Melamine formaldehyde PMC Headspace Response Ratio greater than or equal to 10) |  |  | 
27 | C=C(C)C1CC=C(CO)CC1 (centres unmarked) [Material 948] |  |  | J (Melamine formaldehyde PMC leakage less than or equal to 5%) | I (Melamine formaldehyde PMC Headspace Response Ratio greater than or equal to 10) | 
28 | COC(=O)C1C(C)=CCCC1(C)C (centres unmarked) [Material 123] | J (Melamine formaldehyde PMC leakage less than or equal to 5%) | I (Melamine formaldehyde PMC Headspace Response Ratio greater than or equal to 10) |  |  | 
29 | CC/C(CC(C)CC)=N/O (centres unmarked) [Material 1040] |  |  |  |  | Comment Code: Melamine formaldehyde PMC leakage ([1]; code letter J): J (Melamine formaldehyde PMC leakage less than or equal to 5%); Comment Code: Melamine formaldehyde PMC Headspace Response Ratio ([2]; code letter I): I (Melamine formaldehyde PMC Headspace Response Ratio greater than or equal to 10)
30 | C=C1CCCC(C)(C)C1C=CC(C)=O (centres unmarked) [Material 324] | J (Melamine formaldehyde PMC leakage less than or equal to 5%) | I (Melamine formaldehyde PMC Headspace Response Ratio greater than or equal to 10) |  |  | 
31 | CC(=O)C(C)=CC1C(C)=CCCC1(C)C (centres unmarked) [Material 703] |  |  |  |  | Comment Code: Melamine formaldehyde PMC leakage ([1]; code letter J): J (Melamine formaldehyde PMC leakage less than or equal to 5%); Comment Code: Melamine formaldehyde PMC Headspace Response Ratio ([2]; code letter I): I (Melamine formaldehyde PMC Headspace Response Ratio greater than or equal to 10)
32 | CC(C)=C1CCC(C)(O)CC1 (centres unmarked) [Material 318] | J (Melamine formaldehyde PMC leakage less than or equal to 5%) | I (Melamine formaldehyde PMC Headspace Response Ratio greater than or equal to 10) |  |  | 
33 | CCCCCCC1OC(=O)CC1C (centres unmarked) [Material 941] |  |  | J (Melamine formaldehyde PMC leakage less than or equal to 5%) | I (Melamine formaldehyde PMC Headspace Response Ratio greater than or equal to 10) | 

Like-named read-outs stand apart in the source and are kept apart here. Some entries repeat one wording, which the source may state once for all of them.
